From PubChem BioAssay AID504444 (National Center for Advancing Translational Sciences (NCATS), 2011)
Screen size: about 360,000 compounds; about 7,500 (2.1%) were called active. This list was built around the results that the source calls inconclusive (neither active nor inactive); the mix of calls is not that of the screen. Calls follow the shape of the dose curve; as a rule, active = well fitted inhibition curve with a large enough effect; inconclusive = small, poorly fitted or top-dose-only effect, or effect the other way; inactive = flat fitted curve, though single readings scatter. A potency beside an inconclusive call is a rough fit, not a confirmed value.
% is scaled to controls: 0 for no effect and ±100 for the full control effect; potency is read from the fitted curve at half-maximal effect.

Assay: Nrf2 qHTS screen for inhibitors; also: nearly all actives have a fitted effect of over 60% in size
Conditions: A549 ARE-Fluc reporter, luciferase luminescence, 18-24 h; activity change, negative = inhibition: at 46 µM (top of the series)
In short: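 Quantitative HTS in A549 cells stably bearing an antioxidant response element-firefly luciferase construct. Inhibition of Nrf2-driven transcription was scored by luminescence after 18-24 h of compound exposure at 37 °C.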
In the case of `CCN(CC)C(=O)C(=O)Nc1ccc(OCc2ccccc2)cc1`, the Potency is reported as inconclusive: 2.06 µM [activator, partial curve, poor fit]. For `Cc1ccccc1-n1nc2c(c1NC(=O)c1ccc(Br)o1)CSC2`, the Potency was inconclusive: 8.2 µM [falling, partial curve, poor fit]. For `CCOc1cc(/C=N/NC(=O)c2ccc(-c3csc(Nc4ccc(C)cc4)n3)cc2)ccc1OCC(=O)O`, the Potency was inconclusive: 18.4 µM [activator, partial curve, poor fit]. With `CCc1ccc([C@@H]2CC=C(C(=O)O)[C@H](c3ccc(Br)cc3)N2S(=O)(=O)c2ccc(C)cc2)cc1` the Potency was inconclusive: 29.1 µM [falling, single point]. In the case of `O=C(CSc1ncccn1)Nc1cccc2ccccc12`, the Potency is reported as inconclusive: 16.4 µM [activator, single point]. For `CCN1CCC(N(Cc2ccc3c(c2)OCO3)C(=O)Nc2ccccc2OC)CC1`, the Potency was inconclusive: 18.4 µM [activator, partial curve]. With `COc1ccc(-c2noc(CCCC(=O)NCC3CCCO3)n2)cc1` (configuration not stated) the Potency was inconclusive: 32.6 µM [falling, partial curve, poor fit]. In the case of `O=C(NCC(=O)N1CCCCCCC1)c1ccc(Br)o1`, the Potency is reported as inconclusive: 29.1 µM [activator, partial curve, poor fit]. In the case of `O=C(Cn1cnc2ccccc21)Nc1ccc(SC(F)F)cc1`, the Potency is reported as active: 4.11 µM. With `COc1cc(NC(=O)C(CCS(C)(=O)=O)N2Cc3ccccc3C2=O)cc(OC)c1OC` (configuration not stated) the “activity change, negative = inhibition” value was inactive: 4.31%. With `CC1=NN(c2nc3ccccc3[nH]2)C(=O)C1Cc1ccccc1` (configuration not stated) the Potency was active: 23.1 µM. For `O=C(c1ccc(Br)o1)N1CCN=C1SCc1cccc(F)c1`, the Potency was inconclusive: 6.51 µM [falling, partial curve]. For `N#Cc1c(NC(=O)C2CC(c3ccccc3Cl)=NO2)sc2c1CCC2` (configuration not stated), the “activity change, negative = inhibition” value was inactive: -18.5%. For `CNC(=O)C(=O)N/N=C/c1ccc(Br)cc1`, the Potency was inconclusive: 5.17 µM [activator, full curve]. With `COc1cccc(NC(=O)c2cc3c(=O)n(Cc4cccnc4)ccc3nc2C)c1` the “activity change, negative = inhibition” value was inactive: -12.9%. With `Cc1n[nH]c(=S)n1/N=C/c1ccc(OCc2ccc(Cl)cc2Cl)cc1` the “activity change, negative = inhibition” value was inactive: 13.3%. For `O=c1cc(-c2ccccc2)[nH]c2nc3ccccc3n12`, the Potency was inconclusive: 29.1 µM [falling, single point]. With `Cc1ccc(-c2nc(S(=O)(=O)c3ccc(C)cc3)c(SCC(=O)NC3CCCCC3)o2)cc1` the activity change, negative = inhibition was inactive: 3.69% [at 9.27 µM]. With `FC(F)(F)c1cc(CCN2CCNC[C@@H]2CC2CCCCC2)cc(C(F)(F)F)c1` the Potency was inconclusive: 29.1 µM [falling, single point]. With `NS(=O)(=O)c1ccc(CCNC(=O)Nc2ccc(Cl)cc2)cc1` the “activity change, negative = inhibition” value was inactive: -19.8%. With `CCOC(=O)C1=NN(C(=O)c2ccc(C)cc2)C(O)(c2ccc(Cl)cc2)C1` (configuration not stated) the Potency was inconclusive: 29.1 µM [activator, single point]. In the case of `COc1ccc(C(=O)NC(=S)NNC(=O)c2c(-c3ccccc3)noc2C)cc1`, the Potency is reported as active: 23.1 µM. For `Cc1onc(-c2ccccc2Cl)c1C(=O)NCCn1c(C)cc2ccccc21`, the “activity change, negative = inhibition” value was inactive: -12%. For `CCc1ccc(-c2cc(C)no2)cc1S(=O)(=O)Nc1ccc(Cl)cc1`, the Potency was inconclusive: 20.6 µM [falling, single point]. In the case of `COc1ccc(-c2noc(-c3ccc(NC(C)c4ccccc4)c([N+](=O)[O-])c3)n2)cc1OC` (configuration not stated), the Potency is reported as inconclusive: 23.1 µM [falling, single point]. With `Cc1ccc(S(=O)(=O)NCCC(=O)Nc2ccc(C)cc2C(=O)c2ccccc2)cc1` the Potency was inconclusive: 29.1 µM [falling, single point]. In the case of `CN1C=CC(=O)[C@@H](OC(=O)Nc2ccc(Br)cc2)[C@H]1c1ccccc1Br`, the “activity change, negative = inhibition” value is reported as inactive: -4.56%. For `COc1ccc(CNC(=O)CN(C)Cc2ccc(C(C)(C)C)cc2)cc1`, the Potency was inconclusive: 29.1 µM [falling, single point]. In the case of `COc1ccc(CNC(=O)CN2C(=O)NC3(CCCCCCC3)C2=O)cc1`, the Potency is reported as inconclusive: 4.61 µM [falling, partial curve, poor fit]. With `CCN1CCN(c2cc(C)c3cc(NC(=O)/C=C/c4cccc(Cl)c4)ccc3n2)CC1` the activity change, negative = inhibition was inactive: -4.87% [at 9.27 µM]. For `O=C(Nc1ccc(NC(=O)c2ccco2)nc1)c1ccccn1`, the Potency was inconclusive: 2.06 µM [activator, partial curve, poor fit]. For `COc1ccc(C(=O)NCCn2cc(SCC(=O)NCc3ccco3)c3ccccc32)cc1`, the Potency was inconclusive: 18.4 µM [falling, partial curve, poor fit]. With `Cc1ccc(NC(=O)Cn2cc(S(=O)(=O)N3CCCC3)c(S(=O)(=O)N3CCCC3)c2)cc1C` the Potency was inconclusive: 29.1 µM [falling, single point]. For `Cc1cccc(-n2ncc3c2CCCC3NC(=O)C2(C(N)=O)CC2)c1C` (configuration not stated), the Potency was active: 2.31 µM. With `CC(C)CCNC(=S)Nc1ccc([N+](=O)[O-])cc1` the Potency was inconclusive: 29.1 µM [falling, single point]. For `CCc1ccc(Nc2ncc3c(n2)CC(C)(C)CC3=O)cc1`, the Potency was inconclusive: 0.58 µM [activator, full curve]. For `CC1CN(C(=O)c2ccc(COc3ccc(C(C)C)cc3)o2)CC(C)O1` (configuration not stated), the Potency was inconclusive: 1.64 µM [activator, full curve]. With `COc1ccc(C)cc1-n1c(SCC(=O)Nc2cc(C)on2)nc2ccccc2c1=O` the Potency was inconclusive: 11.6 µM [falling, partial curve]. For `C[C@@H]1CCC(=O)N(CC[C@H](Sc2ccc(Br)cc2)c2ccccc2)CC1`, the Potency was inconclusive: 29.1 µM [falling, single point]. In the case of `CSc1nc(Cl)c(Cc2ccc(OC(C)C)cc2)c(N(C)C)n1`, the Potency is reported as inconclusive: 18.4 µM [falling, single point]. In the case of `COC(=O)C1=C(C(=O)OC)[C@@H]2N(C)c3ccccc3[C@@]23C[C@@H](C(=O)OC)N(C(=O)COCc2ccccc2)C3=N1`, the Potency is reported as inconclusive: 29.1 µM [falling, single point]. In the case of `N#CCC(=O)Nc1ccc(C(=O)OC(C(=O)Nc2ccc([N+](=O)[O-])cc2Br)c2ccccc2)cc1` (configuration not stated), the Potency is reported as inconclusive: 11.6 µM [falling, partial curve, poor fit]. In the case of `COc1ccc2nc(Nc3nc(-c4ccncc4)cs3)sc2c1`, the Potency is reported as inconclusive: 3.26 µM [activator, full curve]. With `COc1ccc(-n2cc(C(=O)NC(C)c3ccccc3)c3ccccc3c2=O)cc1` (configuration not stated) the “activity change, negative = inhibition” value was inactive: -2.62%. With `CC(C)C[C@H]1CN([C@@H](CC(C)C)CN2CCC[C@@H]2CN2C(=O)C(=O)NC[C@@H]2Cc2ccccc2)C(=O)C(=O)N1CCc1ccccc1` the Potency was inconclusive: 29.1 µM [falling, single point]. In the case of `O=[N+]([O-])c1ccc2nc(SCc3cn4cc(Cl)ccc4n3)[nH]c2c1`, the Potency is reported as inconclusive: 29.1 µM [falling, single point]. In the case of `COc1ccc(C(c2nnnn2CCc2ccccc2)N2CCN(C)CC2)cc1OC` (configuration not stated), the Potency is reported as inconclusive: 5.8 µM [activator, full curve, poor fit]. With `Cc1ccsc1/C=N/Nc1nc2ccccc2[nH]1` the Potency was inconclusive: 8.2 µM [activator, partial curve]. With `C/C(=N/O)c1ccc(Oc2cnccn2)cc1` the Potency was inconclusive: 2.91 µM [activator, single point]. In the case of `CC(C)(C)C(O)C(Cc1ccccc1Cl)n1cncn1` (configuration not stated), the “activity change, negative = inhibition” value is reported as inactive: 2.82%. In the case of `O=C(Nc1cccc([N+](=O)[O-])c1)c1ccc(CSc2ccccc2)cc1`, the Potency is reported as inconclusive: 29.1 µM [falling, single point]. With `O=C(O)c1ccccc1SC1=NS(=O)(=O)c2ccccc21` the “activity change, negative = inhibition” value was inactive: -3.27%. In the case of `COc1ccc2oc(C(=O)OCC(=O)N3CCCC(C)C3)c(C)c2c1` (configuration not stated), the “activity change, negative = inhibition” value is reported as inactive: -23.6%. In the case of `Cc1cc(C(=O)Nc2nccs2)c2cc(F)ccc2n1`, the Potency is reported as inconclusive: 10.3 µM [falling, partial curve]. In the case of `Cc1nnc2c3ccccc3c(Cl)nn12`, the Potency is reported as inconclusive: 13 µM [falling, partial curve, poor fit]. For `O=C(COc1ccccc1F)NNC(=O)c1cc(Br)ccc1Cl`, the “activity change, negative = inhibition” value was inactive: 2.26%. In the case of `O=C(NCC1CCCO1)C1CC(=O)N(c2cccc(Cl)c2)C1` (configuration not stated), the “activity change, negative = inhibition” value is reported as inactive: 5.62%. With `Cc1ccc(NC(=O)c2cccc(OCc3c(C)noc3C)c2)c(C)c1` the Potency was inconclusive: 3.66 µM [falling, partial curve, poor fit]. With `Cc1[nH]c2ccccc2c(=O)c1C(=O)/C=C/c1ccccc1` the Potency was active: 18.4 µM. With `Cc1cccc(NC(=O)c2ccc(NCC3CCCO3)c([N+](=O)[O-])c2)n1` (configuration not stated) the Potency was inconclusive: 23.1 µM [activator, partial curve, poor fit]. For `Cc1cc(Cl)ccc1OCCCC(=O)Nc1cccc(-n2cnnn2)c1`, the Potency was inconclusive: 29.1 µM [falling, single point]. With `O=C(CCc1ccccc1)Nc1ccc2c(c1)OCO2` the Potency was inconclusive: 20.6 µM [activator, single point]. In the case of `CCC1CCCCN1C(=S)NC(=O)c1ccco1` (configuration not stated), the “activity change, negative = inhibition” value is reported as inactive: 1.83%. In the case of `Cc1ccc(SCCC(=O)N/N=C/c2cccnc2)cc1`, the Potency is reported as inconclusive: 14.6 µM [falling, partial curve, poor fit]. For `CCC(=O)Nc1ccc2ccccc2c1`, the “activity change, negative = inhibition” value was inactive: 9.87%. With `Cc1c(NS(C)(=O)=O)cccc1-c1nc2ccccc2s1` the Potency was inconclusive: 20.6 µM [falling, single point]. With `COc1ccccc1CN(Cc1nc2ccccc2c(=O)[nH]1)C(=O)Nc1cccc(C)c1` the Potency was inconclusive: 23.1 µM [activator, single point].
